# Data taken from patent US20190284613.
# Test system: Vibhar transposase
# Assay: activity assay
# Settings: purified recombinant protein
sequence,measurement,setting,value
"CTGTCTCTTGATCACAAGT (double strand) [adapter 1 (parental, C:G at position 1)]",activity on this sequence,"tagmentation of E. coli DNA, 5 mM MnCl2, Bicine pH 7.5, 46 or 56 C, reference adapter",active
GCTGACGTCGAGACTTGTGATCAAGAGACAG / CTGTCTCTTGATCACAAGT [adapter pair 1 (3i1b/3i0)],activity on this sequence,"tagmentation of human DNA, products seen after SPRI purification",active
GCTGACGTCGAGACTTGTGATCAAGAGACAG / CTGTCTCTTGATCACAAGTT [adapter pair 4 (3i0*dT)],activity on this sequence,"3' inverted dT preceded by PS bond on bottom strand, comparable fragment yield to pair 1, with or without SPRI, variant of adapter pair 1 (3i1b/3i0)",active

# Construct, isoform or probe ends are uncertain for at least one entry.
